# Data as given in PubChem BioAssay AID1508597 (Cure First, 2020).
# Purpose: 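Genes whose silencing sensitises or protects ovarian cancer cells against rucaparib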 (primary screen)
# System: human ovarian carcinoma lines grown from tumours: OCI-P5x (papillary serous) and OCI-C5x (clear cell)
# Reagent: siRNA pool against human genes, 1.25 pmol siRNA per well
# Timing: 72 h or 96 h, depending on the cell culture
# Treatment: rucaparib 20 µM (about IC30) or vehicle, present until read-out
# Rucaparib or vehicle: Vehicle
# Cell line: OCI-P5x (serous)
# Measured: 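ATP luminescence measured at 72 or 96 h according to the culture, then normalised and expressed as percent viability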
# Direction: viability, normalised: higher = more viable cells remaining
# Rule for the call: 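Active when normalised viability falls below 80 percent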
# Calls: active = viability under 80%; inactive = viability 80% or more
# This is an unselected part of the about 2,100 reagents, in one setting of the screen. 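Calls flag viability under 80% in either arm, not effects specific to rucaparib; the reference for percent is not stated.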 A reagent listed more than once was tested more than once; the source does not tell the runs apart. The record does not give: the 100% reference.
gene,PubChem SID,technical replicate,"viability, normalised (%)",Outcome
OARD1,SID405528062,1,50.3,active
OARD1,SID405528062,2,76.3,active
OARD1,SID405528062,3,44,active
SUPT6H,SID405526507,1,28.1,active
SUPT6H,SID405526507,2,40.6,active
SUPT6H,SID405526507,3,34.3,active
PDK2,SID405527585,1,90.5,inactive
PDK2,SID405527585,2,81.8,inactive
PDK2,SID405527585,3,99.1,inactive
BUB1B,SID405527402,1,83.5,inactive
BUB1B,SID405527402,1,37.6,active
BUB1B,SID405527402,1,102,inactive
BUB1B,SID405527402,2,42.7,active
BUB1B,SID405527402,2,88.6,inactive
BUB1B,SID405527402,2,126,inactive
BUB1B,SID405527402,3,131,inactive
BUB1B,SID405527402,3,45.8,active
BUB1B,SID405527402,3,81.8,inactive
DNMT3L,SID405528237,1,57.8,active
DNMT3L,SID405528237,2,61.2,active
DNMT3L,SID405528237,3,70.2,active
STK24,SID405527746,1,80.2,inactive
STK24,SID405527746,2,98.6,inactive
STK24,SID405527746,3,81.5,inactive
